Experimental data published in publication PMC5833342.
These are yes or no findings as the source states them, for the method shown. Binding seen in cells or lysates may run through a third protein. Some binding calls cover weakened binding; strength is not graded here.

Amino acid sequences for entries named in this document (tags omitted). Residues count along the entry.
UniProt P10451, residues 17-314: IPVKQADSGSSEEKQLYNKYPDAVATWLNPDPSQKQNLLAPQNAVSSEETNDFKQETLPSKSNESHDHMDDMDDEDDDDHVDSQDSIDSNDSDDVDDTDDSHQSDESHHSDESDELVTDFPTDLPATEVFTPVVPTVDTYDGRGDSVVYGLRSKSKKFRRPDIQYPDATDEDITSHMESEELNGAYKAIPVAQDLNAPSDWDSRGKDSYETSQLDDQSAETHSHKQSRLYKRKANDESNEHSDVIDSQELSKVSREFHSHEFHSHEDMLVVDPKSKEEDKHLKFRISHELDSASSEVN
UniProt P35222: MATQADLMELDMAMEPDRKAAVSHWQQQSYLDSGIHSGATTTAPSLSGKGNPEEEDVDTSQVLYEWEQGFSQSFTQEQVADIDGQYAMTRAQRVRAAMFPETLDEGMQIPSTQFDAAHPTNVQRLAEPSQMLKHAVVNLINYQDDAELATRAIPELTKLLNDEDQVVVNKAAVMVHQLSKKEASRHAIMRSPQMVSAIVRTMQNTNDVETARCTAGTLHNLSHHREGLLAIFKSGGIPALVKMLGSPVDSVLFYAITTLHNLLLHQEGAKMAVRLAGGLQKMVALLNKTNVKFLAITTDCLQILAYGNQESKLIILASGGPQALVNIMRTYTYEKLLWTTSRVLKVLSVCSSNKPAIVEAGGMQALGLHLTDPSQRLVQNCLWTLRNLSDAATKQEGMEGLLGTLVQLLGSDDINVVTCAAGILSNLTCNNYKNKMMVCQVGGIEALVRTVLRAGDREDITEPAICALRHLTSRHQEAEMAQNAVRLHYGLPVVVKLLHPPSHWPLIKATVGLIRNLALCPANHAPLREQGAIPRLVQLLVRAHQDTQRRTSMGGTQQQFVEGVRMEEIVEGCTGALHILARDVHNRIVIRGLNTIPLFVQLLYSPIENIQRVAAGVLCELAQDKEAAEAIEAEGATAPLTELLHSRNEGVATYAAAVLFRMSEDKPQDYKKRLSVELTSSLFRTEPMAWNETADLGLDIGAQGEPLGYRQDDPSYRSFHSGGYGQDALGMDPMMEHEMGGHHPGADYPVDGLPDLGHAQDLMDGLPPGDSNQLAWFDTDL
UniProt P28482: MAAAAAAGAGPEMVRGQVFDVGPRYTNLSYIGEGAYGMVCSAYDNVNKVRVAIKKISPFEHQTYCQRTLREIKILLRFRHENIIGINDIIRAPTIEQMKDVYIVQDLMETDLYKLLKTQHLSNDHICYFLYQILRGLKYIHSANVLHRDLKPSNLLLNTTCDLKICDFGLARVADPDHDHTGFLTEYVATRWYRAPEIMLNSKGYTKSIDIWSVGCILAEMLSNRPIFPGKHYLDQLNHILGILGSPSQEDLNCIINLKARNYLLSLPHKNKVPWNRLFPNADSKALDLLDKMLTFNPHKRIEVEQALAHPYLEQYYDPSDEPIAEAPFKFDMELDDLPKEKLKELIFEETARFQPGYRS

Key:
Flag-OPN (Osteopontin) = Flag-OPN (Osteopontin) (UniProt P10451); assay: co-IP; CCLP1 and HEK293T cells transfected with empty vector or Flag-OPN; total cell lysates; IP with anti-Flag antibody and immunoblot
[1] = target: β-Catenin, endogenous (human (endogenous in CCLP1 and HEK293T)) (UniProt P35222); assay: co-IP; endogenous proteins; IP using anti-β-Catenin antibody with IgG as control; OPN detected by blot
[2] = target: MAPK1 (ERK2), endogenous (human (endogenous in CCLP1 and HEK293T)) (UniProt P28482); assay: co-IP; endogenous proteins in CCLP1 cells; IP with anti-MAPK1 monoclonal antibody, rabbit IgG as nonspecific control; OPN detected by anti-OPN antibody

Substance | binding (Flag-OPN (Osteopontin)) | binding [1] | binding [2]
MAPK1 (ERK2), endogenous (from UniProt P28482 1-360) | binds |  | 
Osteopontin (OPN), endogenous (from UniProt P10451 17-314) |  | binds | binds
β-Catenin, endogenous (from UniProt P35222 1-781) | binds |  | 
